Measured values published in patent EP2163616A2.
No constants are given. Whether binding was seen depends on the method and setting. Some entries that bind do so weakly or less than the wild type.

Molecular target: T1, Subtilase JP170 (Bacillus sp. JP170)
T1 sequence: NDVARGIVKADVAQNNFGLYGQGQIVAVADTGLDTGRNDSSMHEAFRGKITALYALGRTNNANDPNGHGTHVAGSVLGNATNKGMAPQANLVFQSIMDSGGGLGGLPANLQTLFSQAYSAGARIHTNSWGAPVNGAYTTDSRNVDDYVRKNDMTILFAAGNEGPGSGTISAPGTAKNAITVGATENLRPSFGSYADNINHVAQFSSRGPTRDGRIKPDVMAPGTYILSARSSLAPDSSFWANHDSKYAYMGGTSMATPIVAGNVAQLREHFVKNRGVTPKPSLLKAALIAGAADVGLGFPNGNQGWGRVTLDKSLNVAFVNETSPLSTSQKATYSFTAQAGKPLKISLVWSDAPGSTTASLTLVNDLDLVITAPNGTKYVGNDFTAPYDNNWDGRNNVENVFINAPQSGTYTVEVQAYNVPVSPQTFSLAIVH
Experiment: X-ray crystal structure of the complex

B1: Cl2 inhibitor (protein, UniProt P01053 2-84, looked up)
chain: SSVEKKPEGVNTGAGDRHNLKTEWPELVGKSVEEAKKVILQDKPEAQIIVLPVGTIVTMEYRIDRVRLFVDKLDNIAQVPRVG
For B1, the binding was “binds”.
